Data from PubChem BioAssay AID2551 (National Center for Advancing Translational Sciences (NCATS), 2010).
Hit rate of the full screen: of about 310,000 compounds, about 17,000 (5.5%) were called active. Inconclusive means that the source gave no clear call. Such entries were picked first, then a sample of the others. Calls come from the whole dose curve; as a rule, active = well fitted inhibition curve with a large enough effect; inconclusive = small, poorly fitted or top-dose-only effect, or effect the other way; inactive = no such curve, though single readings can be large or run the other way. Potencies of inconclusive entries are doubtful fits and often do not repeat.

Sequences of proteins named here, by UniProt entry; tags and fusion partners are left off. A change or cut given only in a name is not applied to a line headed by its entry.
UniProt P51450: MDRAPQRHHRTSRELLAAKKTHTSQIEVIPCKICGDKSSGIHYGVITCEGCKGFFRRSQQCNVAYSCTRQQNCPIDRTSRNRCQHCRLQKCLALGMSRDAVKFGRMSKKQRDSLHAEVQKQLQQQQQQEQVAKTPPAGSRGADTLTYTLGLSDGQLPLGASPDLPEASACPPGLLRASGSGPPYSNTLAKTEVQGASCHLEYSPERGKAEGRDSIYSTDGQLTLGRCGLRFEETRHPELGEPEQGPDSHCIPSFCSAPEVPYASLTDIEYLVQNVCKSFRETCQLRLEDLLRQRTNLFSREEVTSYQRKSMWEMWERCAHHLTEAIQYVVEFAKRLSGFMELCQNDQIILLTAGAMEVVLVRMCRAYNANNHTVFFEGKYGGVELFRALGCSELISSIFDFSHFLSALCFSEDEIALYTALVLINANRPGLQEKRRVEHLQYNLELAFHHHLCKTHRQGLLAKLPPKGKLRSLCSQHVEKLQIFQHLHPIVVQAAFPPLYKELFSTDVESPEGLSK

Each compound was assayed against Nuclear receptor ROR-gamma (Mus musculus) (UniProt P51450) (assay: qHTS for inhibitors of ROR gamma transcriptional activity). Details: Drosophila S2 Gal4-RORgamma UAS-luciferase reporter, 20 h; activity change, negative = inhibition: at 53.6 µM (top of the series).
Procedure, shortened: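 Read-out: Photinus luciferase luminescence; inhibitors lower reporter signal. Insect Schneider cells with Gal4-ROR gamma fusion under metallothionein promoter, UAS reporter; 700 uM final copper sulfate induction, 20 hr, ambient temperature.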
% is set by controls: 0 for no effect and ±100 for the full control effect; potency is the fitted concentration of half-maximal effect.
Note: nearly all actives have a fitted effect of over 60% in size.

Activity change, negative = inhibition, inactive:
O=C(CN1C(=O)S/C(=C\c2ccc(F)cc2)C1=O)NC1C=CS(=O)(=O)C1 (stereo not given) -1.02%, COC(=O)CCSCC(=O)Nc1nnc(C)s1 -5.78%, CCCC(=O)N(Cc1cc(=O)[nH]c2ccccc12)c1ccccc1OC -1.81%, COc1ccccc1C1=Nn2c(nnc2-c2ccccc2OC)SC1 -50.5%, O=C(CSc1ccc(Cl)cc1)N1CCOCC1 4.67%, O=C(c1cc(-c2ccc(O)cc2)on1)N1CCN(c2ccccc2)CC1 -1.98%, CC(NC(=O)Cn1cc(C(=O)C2CC2)c2ccccc21)c1ccccc1 (stereo not given) 29%, CC(=O)Oc1ccc(N(C(C)=O)S(=O)(=O)c2ccc(C)c([N+](=O)[O-])c2)cc1 1.4% [at 10 µM], CCCC(O)(c1ccc(Br)cc1)C(CN1CCOCC1)c1ccc(Cl)cc1 (stereo not given) 41.2%, CCS(=O)(=O)N1N=C(c2ccccc2)CC1c1ccc2nccnc2c1 (stereo not given) 78%, CC(=O)c1c(O)cc(=O)n(-c2ccccc2)c1-c1cccc2ccccc12 42.4%, Cc1cc(C)n(CC(=O)N/N=C/c2ccccn2)n1 -28.4%, Cc1nnc(SCC(=O)c2ccc(S(=O)(=O)N3CCOCC3)cc2)n1-c1ccccc1 28.4%, c1ccc(CN2CCN(CCCNc3ccc4nnc(-c5ccccc5)n4n3)CC2)cc1 5.9%, COc1ccc(COc2cc(-c3cccc(OC)c3)nc3ccc(NC(=O)C(C)C)cc23)cc1 37.5%, O=C(c1ccc(=O)[nH]c1)N1CCN(S(=O)(=O)c2ccc(Cl)cc2)CC1 -10.8%, COc1ccc(C(=O)C2CCCN(C(=O)c3cccc(Cl)c3F)C2)cc1OC (stereo not given) -12.2%, Nc1ccccc1C(=O)Nc1cccc(C(=O)O)c1 -11.9%

Potency, active:
Cc1cccnc1NC(=S)Nc1ccc(F)cc1F 6.31 µM, CCCCNC(=O)Nc1nnc(-c2ccc(OCC)cc2)o1 7.08 µM, Fc1ccccc1/C=C1\CCCC2=C1NC(=S)NC2c1ccccc1F (stereo not given) 2.51 µM, O=C1OC(/C(=C\Nc2ccc(F)cc2F)[N+](=O)[O-])c2ccccc21 (stereo not given) 14.1 µM, CCC(C)c1ccc(C(C)NC(=S)NC2CCCCC2)cc1 (stereo not given) 2.82 µM, C=CCNC(=S)Nc1nc2c(cc1C(=O)OCC)CCCC2 3.98 µM, Cc1ccc(-c2ccc(/C=N/NC(=S)Nc3ccccc3)o2)cc1[N+](=O)[O-] 0.891 µM, O=C(NC(=S)Nc1ccc2oc(-c3cccnc3)nc2c1)c1cccc(Cl)c1 20 µM, NC(=S)N/N=C/c1ccc(-c2cc(Cl)c(Cl)cc2Cl)o1 0.562 µM

Potency, inconclusive:
COc1ccc(C(=O)O/N=C(\N)Cc2ccc(Cl)c(Cl)c2)cc1OC 15.8 µM [inhibitor, single point], CC(=O)Nc1ccc(C(=O)/C=C/c2ccc[nH]2)cc1 20 µM [activator, single point], CCOC(=O)c1cccc(NC(=O)CNC(=O)C2CCCCC2)c1 5.01 µM [activator, partial curve], Cc1nn2cc(-c3ccc(-c4ccccc4)cc3)nc2s1 11.2 µM [inhibitor, single point], Cc1cc(C)n(Cc2ccc(NC(=O)c3nn(C)cc3[N+](=O)[O-])cc2)n1 35.5 µM [activator, single point], CCOC(=O)Nc1sc(C(=O)N(CC)CC)c(C)c1C(=O)OCC 10 µM [inhibitor, partial curve], CCCCn1c(SCC(=O)Nc2ccc(OC)cc2)nc2ccc(N3CCOCC3)cc2c1=O 10 µM [inhibitor, partial curve, poor fit], CCCNC(=O)CSc1nc(Cc2ccccc2)nc2ccccc12 15.8 µM [activator, single point], COc1ccc(CCC(=O)N(C)CC(=O)Nc2ccc(Cl)c(C(F)(F)F)c2)cc1 31.6 µM [activator, single point], CCOC(=O)N1CCC(n2c(=S)[nH]c3cc(OC)c(OC)cc3c2=O)CC1 8.91 µM [inhibitor, partial curve, poor fit], O=C(CCN1CCOCC1)c1ccc(Cl)cc1 15.8 µM [inhibitor, single point], C[C@H](NC(=O)c1nc[nH]c1C(=O)N[C@@H](Cc1ccccc1)C(=O)OCc1ccccc1)C(=O)OC(C)(C)C 35.5 µM [inhibitor, single point], CCOC(=O)c1c(NC(=O)CNCCO)sc(C)c1C 1.58 µM [inhibitor, partial curve], N#C/C(=C/c1ccc(N2CCOCC2)o1)c1ccc(Cl)cc1 35.5 µM [inhibitor, single point], O=C(NCCC1=CCCCC1)c1ccc(F)cc1 11.2 µM [inhibitor, single point], CCN(C(=O)COC(=O)CCc1ccccc1)c1ccccc1 3.98 µM [inhibitor, single point], N#Cc1cccc(-c2nccc(NCc3cccs3)n2)c1 35.5 µM [activator, single point], CCOc1ccc(C(=S)N2CCCC2)c(OCC)c1 12.6 µM [inhibitor, partial curve, poor fit], O=C(N/N=C/c1c[nH]c2ccccc12)c1cccc(Cl)c1 35.5 µM [inhibitor, single point], O=C(CN1CCc2ccccc2C1)NCC(=O)Nc1ccc(F)cc1 15.8 µM [activator, single point], CCN(CC)S(=O)(=O)c1cc(NC(=O)CN2CCN(c3ccccn3)CC2)ccc1C 3.55 µM [activator, full curve], Cc1c(Cl)cccc1NC(=S)N1CCN(S(=O)(=O)c2cccs2)CC1 35.5 µM [inhibitor, single point], O=C(Nc1ccc2c(c1)OCCO2)c1cccc(Cl)c1Cl 0.355 µM [activator, partial curve]
